PubChem BioAssay AID1259308, NCATS | 2017
The whole screen tested about 59,000 reagents; this is an unselected part. About 1,510 of them (2.6%) were called active. 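Calls use total luciferase alone and ignore viability, so some active siRNAs may act by altering cell number.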 A number with no mark means an inactive call. Not all columns of the deposit are shown.

- Assay: 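Candidate targets for better recombinant protein yield in mammalian cells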 (primary screen)
- System: human HEK293 embryonic kidney cells stably expressing firefly luciferase (HEK-CMV-Luc2-Hygro)
- Reagent: single siRNA against human genes, 0.8 pmol siRNA per well
- Timing: 72 h
- Read-out: 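Reporter luminescence and viable-cell signal on separate replicate plates, given as percent of non-targeting control and median/MAD z-scores, plus per-cell luciferase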
- Direction: total luciferase, z-score: higher = more reporter protein produced
- Call rule: 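An siRNA counts as active if its total luciferase robust z-score exceeds 3; genes with two or more such siRNAs out of three were retested with fresh siRNAs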
- Calls: active = raised luciferase; inactive = no rise

total luciferase, z-score, by target gene and reagent
CRAT: SID160747896 1.38; SID160747907 1.55; SID160747917 -1.45
OR4K13: SID160766505 0.132; SID160766506 -0.864; SID160766507 -0.618
PTGS2: SID160715321 0.155; SID160715322 1.65; SID160715323 1.07
CNTROB: SID160755469 -0.962; SID160755470 -0.237; SID160755471 0.321
LINC00922: SID160763065 -1.35; SID160763066 -0.325; SID160763067 -1.13
TMEM217: SID160761698 0.532; SID160761699 -0.0437; SID160761700 -0.731
LOC645984 (retired record): SID160769759 0.256; SID160769760 0.859; SID160769762 0.369
BDKRB1: SID160724728 1.16; SID160724799 0.266; SID160724887 -1.7
GPR160: SID160738225 -1.16; SID160738226 -0.908; SID160738227 0.62
XPO5: SID160746144 -0.194; SID160746145 -0.782; SID160746146 -0.945
ZNF559: SID160752365 1.84; SID160752367 -0.851; SID160752368 -0.675
TMOD1: SID160718170 -0.0712; SID160718171 -1; SID160718172 3.21 (active)
RRP36: SID160753394 -1.12; SID160753395 -0.569; SID160753396 -0.931
DEFB107A: SID160732783 0.818; SID160761948 -0.345; SID160761949 0.0401
HAPLN4: SID160767521 2.35; SID160767522 -0.347; SID160767523 1.23
CHI3L1: SID160742734 -0.235; SID160742745 1.68; SID160742757 0.112
PCBP2: SID160713886 0.709; SID160713887 -1.47; SID160713888 -0.0956
IRF4: SID160731145 -0.395; SID160775928 0.543; SID160775929 -0.231
TRPM1: SID160777321 -0.972; SID160777322 -0.188; SID160777323 2.3
SLC25A33: SID160752026 -0.449; SID160752028 -0.401; SID160752029 -0.0728
RDH16: SID160720417 -0.218; SID160720418 0.472; SID160720419 -0.585
PLPP2: SID160720426 -1.45; SID160720427 -3.39; SID160732071 0.0883
GJA4: SID160730955 1.83; SID160770975 -0.0622; SID160770989 2.77
GPR158: SID160746149 -1.17; SID160746150 -0.009; SID160746151 0.776
OR2T29: SID160764724 5.84 (active); SID160764725 -0.167; SID160764727 2.47
